Reference: PubChem BioAssay AID1347423 (Functional Genomics Laboratory (NCATS/FGL), 2020)
Screen size: about 52,000 sequences; about 210 (0.4%) were called active.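 How the source made its calls: active means gene whose silencing raises cell survival under the drug, median off-target-corrected z-score across its silencing RNAs 2 or more; inactive means the rest.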 The list shows a part of the results.

Assay: Resistance to Poly (ADP-Ribose) Polymerase inhibitor: Gene Identification via Genome-wide siRNA Screen
Settings: mouse BRCA2 R2336H ES cells, olaparib, CellTiter-Glo viability; hits give high values
Method in brief: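 Mouse BRCA2 R2336H ES cells were reverse-transfected with siRNA (20 nM final), treated at 48 h with 500 nM olaparib, and read by CellTiter-Glo after 72 h. Scores: MAD-based z per siRNA, median per gene, seed off-target correction.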

Sequence | z-score
GAAUAGAAGGGAAGAAAGUTT against Crb3 | inactive: -1.25
ACUGUUUAAUCACUGUGGUTT against Olfr891 | inactive: 0.327
GAGAGAGACAAUCCUGAAGTT against Klra22 | inactive: -0.691
GCUCGUCAUUGAAAUAGUGTT against Igtp | inactive: 0.878
GGAAGAAUCCUCCAUGGAGTT against Mrpl24 | inactive: 1.25
GGAGCAAUGUUGUCACAACTT against Fbln1 | inactive: -0.548
GGAAAGGUGCUUUUCAAAATT against Nedd9 | inactive: 0.802
GGUCGUAUAUAAUUUGAUGTT against Nnt | inactive: 0.5
GGGACUUGGGACUUGUGGATT against Saa4 | inactive: -0.393
GCCUGUUACUGACUAUAACTT against 4933407P14Rik | inactive: 0.65
GCAAUGUAACCCUGAAAAUTT against Cd48 | inactive: -0.909
GCACACCUCUAGUGGACUUTT against Taf10 | inactive: -2.69
CCUUGUAUGGAAUUUAAAGTT against Rbm6 | inactive: 1.45
GGAAGUGUUAAAUCCUGCUTT against Rnaseh1 | inactive: -0.212
GGAUUCUUCUUCCACUUUGTT against Fbxo46 | inactive: -0.681
GGAAAGAAGAAGAGUCUAATT against Nucb2 | inactive: -0.592
CCUAGCAAUGUAGUAUCUATT against Snap23 | inactive: -0.62
CCAGGAGACCCAAUGUUGUTT against MGC91194 | inactive: -0.743
GCUCUUAGAAUCAUCGUCCTT against Ctbp1 | inactive: 0.656
GGUCAAGAGUGCAUUCAAATT against Olfr1445 | inactive: 0.529
GGAUGGACCAAAGAGAUAUTT against Ldb1 | inactive: -0.346
GCUCUAUUCCGGUGGAUGUTT against 1110003P22Rik | inactive: 0.526
GGUGAGAUCUCAAUGGAAATT against Mfap1 | inactive: -2.24
GGACAUGGUUUAGGUUAGATT against Zxda | inactive: 0.332
GGCCACAGGUGGAAACUAUTT against Tubb4 | inactive: 0.675
GCUCUUUAUAGGGUUCGGATT against GnT-IX | inactive: 0.114

Sequence | z-score
GCUGCCUCUUUCUUUGCUUTT against Tm4sf11 | inactive: -0.233
GGGAACCUGUUUUCUUUCUTT against Nudt3 | inactive: 0.0837
GGAUGUUAAAAUUGCCCUGTT against Olfr909 | inactive: 0.276
GGUUGAGAACGAAAACCACTT against D5Ertd606e | inactive: -0.339
GGUUAUUUUUAGCUUCAGUTT against Lrpprc | inactive: -0.328
GGACUAGAGAAAGUGUGCATT against Egf | inactive: 0.977
CUACUCACAGUUUUAUUCATT against Tas2r137 | inactive: 0.466
GGGCUUCCUUCAGAAGAGUTT against Slc38a3 | inactive: -0.196
GGAACAUAUACUGGACAGATT against BC012278 | inactive: -1.01
GGAGUGCGUCUUUGAGAAUTT against Fgf11 | inactive: -0.949
GGUUCAUCUCAUCUCAAGUTT against 4930538D17Rik | inactive: 1.42
GGUGGACUGUGAAAUAAAATT against 1300017K07Rik | inactive: 0.529
GGCUAAAGGAAACUCACCUTT against 9030623N16Rik | inactive: -2.61
GGAUAGCUGCGUAUGCCUATT against 2400001E08Rik | inactive: 0.335
GCCAAGAAGAUGGAUCCGCTT against 6430526N21Rik | inactive: 0.767
GCCCUGGUUCCUAACCAAUTT against Nudt12 | inactive: 0.0244
GGACAAAACCUCAGUUGAUTT against Bves | inactive: -0.614
GGUUGUCUGACACUGUACATT against 2610036N15Rik | inactive: -0.834
GGAAAUCUGAGUGUGCACUTT against Pcdhgb1 | inactive: 0.439
GGUUCUAUGCUGAAGGUCATT against Lhfpl2 | inactive: 0.135
GGAAAUCACCAUCCUUCGUTT against Map4k2 | inactive: 0.322
CGGAACACCAAUAAGAGAATT against Hgd | inactive: -1.09
CCUAUGUAUCUCAUCGCUGTT against Sox11 | inactive: -0.329
GGGCUUAACUAAAAGUAGUTT against 4921515J06Rik | inactive: 0.238
CCAUAAACAAUCACUUGUATT against Ccnf | inactive: -1.1
GGCGGACUUGGAUUACAGCTT against 4632411J06Rik | inactive: -0.149

Sequence | z-score
GGAUUGAAGAGCUUAACAATT against Mta1 | inactive: -2.06
GGUUGAAUAGCACUGGGACTT against Slitrk5 | inactive: -0.448
GCAAAUGGAUGCGCUAAGCTT against Scgf | inactive: 1.83
CCGAGAUAUGAAUCAAAUUTT against Wars | inactive: -2.61
GGCAUAGGAGGAUUCUCUUTT against Slc15a4 | inactive: -0.282
AUUUGGUUGCCUUACAACUTT against Olfr868 | inactive: -1.15
GGCGCAACUCCAGAUACACTT against 4930511H11Rik | inactive: 1.1
GCAAAGCUGAUGGACUCAATT against 2410018M08Rik | inactive: -0.965
GCGUGCUCUUUUUAACUACTT against 9430099J10Rik | inactive: 1.86
GGUUCUUCGAAGCAAUAGCTT against 4930544G21Rik | inactive: 1.13
GGAGCACAACAUUUUUAUGTT against Atp6v0d2 | inactive: 0.478
GCUAUAGGUUAGAUUCAAATT against LOC434228 | inactive: 2.05
GGAUCAUUGUCAAAGUUCUTT against BC011426 | inactive: -0.403
CCUUGAUUGAGCCUGACUUTT against Hook2 | inactive: 1.3
GGUGAUAAAGGCUGGAGUGTT against Wnt9a | inactive: -0.764
GGAAAAAGAUGUCCUAUCUTT against Rufy2 | inactive: 1.1
GGGAUCCAAUCAAGAAGUATT against Lmcd1 | inactive: 0.242
CCUACUCAUUUGAAUCAAGTT against Itih2 | inactive: 0.228
GGGACAGAGAAUGAAGAUGTT against Tnfrsf21 | inactive: -0.397
CGUAUUGACAGUGGAAAUCTT against Gpr12 | inactive: 0.0615
GCAUGUGGUACAGAUAGCUTT against Kif24 | inactive: -1.34
GGAAACAACGGAUCCAAAATT against Plcb3 | active: 2.47
GCCUGUUGCUAUGAAUGGUTT against Zfp597 | inactive: -1.05
GGUGAAUAACUGCUCUAUCTT against Zp1 | inactive: 0.717
CGAAGCCAUAAAUUUCAUATT against Aldh3a2 | inactive: -0.133
GGAUCAGGAGCUGUUUGGATT against Tsrc1 | inactive: -0.168

30 entries from above in a different format.

| Sequence | z-score |
| --- | --- |
| GGAAAUCACCAUCCUUCGUTT against Map4k2 | inactive: 0.322 |
| CGGAACACCAAUAAGAGAATT against Hgd | inactive: -1.09 |
| CCUAUGUAUCUCAUCGCUGTT against Sox11 | inactive: -0.329 |
| GGGCUUAACUAAAAGUAGUTT against 4921515J06Rik | inactive: 0.238 |
| CCAUAAACAAUCACUUGUATT against Ccnf | inactive: -1.1 |
| GGCGGACUUGGAUUACAGCTT against 4632411J06Rik | inactive: -0.149 |
| GGAUUGAAGAGCUUAACAATT against Mta1 | inactive: -2.06 |
| GGUUGAAUAGCACUGGGACTT against Slitrk5 | inactive: -0.448 |
| GCAAAUGGAUGCGCUAAGCTT against Scgf | inactive: 1.83 |
| CCGAGAUAUGAAUCAAAUUTT against Wars | inactive: -2.61 |
| GGCAUAGGAGGAUUCUCUUTT against Slc15a4 | inactive: -0.282 |
| AUUUGGUUGCCUUACAACUTT against Olfr868 | inactive: -1.15 |
| GGCGCAACUCCAGAUACACTT against 4930511H11Rik | inactive: 1.1 |
| GCAAAGCUGAUGGACUCAATT against 2410018M08Rik | inactive: -0.965 |
| GCGUGCUCUUUUUAACUACTT against 9430099J10Rik | inactive: 1.86 |
| GGUUCUUCGAAGCAAUAGCTT against 4930544G21Rik | inactive: 1.13 |
| GGAGCACAACAUUUUUAUGTT against Atp6v0d2 | inactive: 0.478 |
| GCUAUAGGUUAGAUUCAAATT against LOC434228 | inactive: 2.05 |
| GGAUCAUUGUCAAAGUUCUTT against BC011426 | inactive: -0.403 |
| CCUUGAUUGAGCCUGACUUTT against Hook2 | inactive: 1.3 |
| GGUGAUAAAGGCUGGAGUGTT against Wnt9a | inactive: -0.764 |
| GGAAAAAGAUGUCCUAUCUTT against Rufy2 | inactive: 1.1 |
| GGGAUCCAAUCAAGAAGUATT against Lmcd1 | inactive: 0.242 |
| CCUACUCAUUUGAAUCAAGTT against Itih2 | inactive: 0.228 |
| GGGACAGAGAAUGAAGAUGTT against Tnfrsf21 | inactive: -0.397 |
| CGUAUUGACAGUGGAAAUCTT against Gpr12 | inactive: 0.0615 |
| GCAUGUGGUACAGAUAGCUTT against Kif24 | inactive: -1.34 |
| GGAAACAACGGAUCCAAAATT against Plcb3 | active: 2.47 |
| GCCUGUUGCUAUGAAUGGUTT against Zfp597 | inactive: -1.05 |
| GGUGAAUAACUGCUCUAUCTT against Zp1 | inactive: 0.717 |

Next entries:

Sequence | z-score
GCAUCCUGAUCACUUAACATT against 4933426L22Rik | inactive: -0.544
GGUUGGAUUAUGCAUAUUUTT against D3Ucla1 | inactive: -1.22
GGCUAAAGAAUAAAGAUCCTT against Igsf4d | inactive: 0.807
GGUUUUCUGAAAUUGAGGATT against 2410003P15Rik | inactive: 0.874
GGCUCUGGAUGAAGAACUUTT against Gfpt2 | inactive: -1.78
GCACUGCCAGAGGUUCUGUTT against U90926 | inactive: 0.946
CGAAGUGUUACUUUUUCAATT against Skp2 | inactive: -0.517
GCUCCAGGGCAUUGUUUCUTT against Try10l | inactive: -0.467
GGUUUACUGGCCAAGAUGGTT against 4930579K19Rik | inactive: -0.719
GGCUAUGGAAAAAGAUAUGTT against Il21r | inactive: -0.0695
GCAACAUGUGAACAGAUGCTT against Btbd12 | inactive: 0.263
GGCUCUUACUCCUGUAUGUTT against Thbd | inactive: 0.913
GCUUACUACUCCGUAAAUGTT against Aldh5a1 | inactive: -0.723
GCCUAACAGGGUCAAAUCUTT against Olfr272 | inactive: -2.44
GGACUUGGUGGUAUCUUACTT against Sult4a1 | inactive: 0.97
CUCCCAAAUACUGAUUAUATT against Trim6 | inactive: -1.2
GGAAUCUCAGACCAUCCAGTT against Cpa3 | inactive: 2.35
CCUAAGGAAGAUAAACCGGTT against 4933412E14Rik | inactive: -0.378
GGGUCAUCCAAACGCACAGTT against Uvrag1 | inactive: 0.725
GGUGGAUGAGUUGUUCCUUTT against Adck5 | inactive: -0.317
GGAUGAAAAUCUCUGUCCUTT against Anktm1 | inactive: 0.189
GGAAGCCACUUCAGAAGCUTT against Olfr412 | inactive: 0.591
GCUCAGCUUAGCUGCUUUUTT against Olfr493 | inactive: -1.12
GGAGGAAUUUCUUCUCUAUTT against D630002G06 | inactive: 0.583
GGUUUGGAGUGACUUAAUATT against Scrn2 | inactive: -0.000542
CCUUGUGAUGUUUAAAGACTT against Abcg1 | inactive: 0.111
